Laboratory results published in publication PMC2871791.

Key:
Test in all cases: two-hybrid; LexA system in S. cerevisiae DY1 with β-galactosidase reporter pSH18-34; integrin cytoplasmic domains in pEG202, kermit2 constructs in pJG4-6; prey induced 6 hours in galactose/raffinose; quantified with ONPG, normalised to a positive control
[1] = biological target: T1, Xenopus integrin α5 cytoplasmic domain, yeast two-hybrid fusion (Xenopus laevis)
T1 sequence: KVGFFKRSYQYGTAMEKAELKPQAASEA

[2] = biological target: T2, Xenopus integrin αV cytoplasmic domain, yeast two-hybrid fusion (Xenopus laevis)
T2 sequence: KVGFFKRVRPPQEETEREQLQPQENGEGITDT

[3] = biological target: T3, Xenopus integrin α6 cytoplasmic domain, yeast two-hybrid fusion (Xenopus laevis)
T3 sequence: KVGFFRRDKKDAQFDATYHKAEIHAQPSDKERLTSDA

Measured: binding

kermit2mut (PDZ domain ALGL altered), yeast two-hybrid fusion (Xenopus laevis)
no binding: all assays above

These are yes or no findings as the source states them, for the method shown. Where a sequence is shown, tags or fusion partners need not be part of it.
